By UniProt entry, the sequences of proteins in these tests, tags left out. Where a name states a change or a piece, a line headed by the entry shows the natural chain unless it says otherwise.
UniProt P51450: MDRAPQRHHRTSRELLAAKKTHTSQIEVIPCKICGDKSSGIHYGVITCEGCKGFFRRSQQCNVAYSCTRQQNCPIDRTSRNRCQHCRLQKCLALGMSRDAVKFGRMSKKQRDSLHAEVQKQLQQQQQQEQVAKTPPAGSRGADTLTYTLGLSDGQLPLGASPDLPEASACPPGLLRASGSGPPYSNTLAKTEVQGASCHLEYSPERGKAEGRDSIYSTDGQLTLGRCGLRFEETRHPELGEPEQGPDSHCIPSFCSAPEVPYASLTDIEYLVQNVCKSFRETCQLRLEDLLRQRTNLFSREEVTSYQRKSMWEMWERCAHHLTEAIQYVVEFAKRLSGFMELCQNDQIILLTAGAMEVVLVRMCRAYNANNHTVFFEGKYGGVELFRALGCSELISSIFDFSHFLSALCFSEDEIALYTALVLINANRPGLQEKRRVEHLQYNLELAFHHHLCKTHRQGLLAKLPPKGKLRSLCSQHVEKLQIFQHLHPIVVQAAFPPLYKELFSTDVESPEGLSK

Where “and” joins values, the source holds several entries; their conditions need not be identical. Equal entries are not always repeated. Among all 310,000 compounds or so, about 17,000 (5.5%) were called active. The shares of active, inactive and inconclusive entries below differ from those in the screen. The call rests on the fitted dose curve; in most records, active means well fitted inhibition curve with a large enough effect; inconclusive means small, poorly fitted or top-dose-only effect, or effect the other way; inactive means no such curve, though single readings can be large or run the other way. Potencies of inconclusive entries are doubtful fits and often do not repeat.
Each compound was assayed against Nuclear receptor ROR-gamma (Mus musculus) (UniProt P51450) (assay: qHTS for inhibitors of ROR gamma transcriptional activity). Details: Drosophila S2 Gal4-RORgamma UAS-luciferase reporter, 20 h; activity change, negative = inhibition: at 53.6 µM (top of the series).
In short: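 Luminescence from a UAS-regulated Photinus luciferase reporter in stably transfected Drosophila Schneider cells is measured; decreased signal marks ROR gamma inhibition. Fusion expression is induced by 700 uM copper sulfate for 20 hr.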
In the case of `O=C1CSC(=NC2CCCCC2)N1`, the Potency is reported as inconclusive: 14.1 µM [inhibitor, single point]. In the case of `Cc1cc(C)c2c(N)c(C(=O)NCc3ccco3)sc2n1`, the Potency is reported as inconclusive: 0.891 µM [activator, full curve]. With `Cc1ccc2cccc(NC(=S)NC(=O)c3ccn(C)n3)c2n1` the Potency was active: 5.01 µM. In the case of `CCOC(=O)N1CCN(C(=O)CCCCn2c(=S)[nH]c3ccsc3c2=O)CC1`, the Potency is reported as inconclusive: 35.5 µM [inhibitor, single point]. For `COC(=O)C(C)N(C(=O)c1ccc(Cl)cc1)c1c(C)cccc1C` (stereo unspecified), the Potency was inconclusive: 15.8 µM [activator, single point]. `O=C(Cn1cnc([N+](=O)[O-])n1)N/N=C/c1cccc(Cl)c1` was tested, and the “activity change, negative = inhibition” value was inactive: -24.9%. For `COc1ccc(Cl)cc1NC(=O)C/C(C)=N/NC(=O)CCc1ccccc1`, the Potency was inconclusive: 10 µM [inhibitor, single point]. `CCN(CC)c1nc2cc(OC)ccc2cc1C#N` was tested, and the Potency was inconclusive: 22.4 µM [activator, single point]. For `COc1cc(NC(=O)CSc2c3c(nc4ccccc24)CCC3)cc(OC)c1OC`, the Potency was inconclusive: 11.2 µM [activator, partial curve, poor fit]. With `NC1=NN=C(N2N=C(c3ccccc3)CC2(O)C(F)(F)F)n2ncnc2C1` (stereo unspecified) the Potency was active: 12.6 µM. `COc1ccc(C(=O)NC(=S)Nc2cc(C)ccn2)cc1[N+](=O)[O-]` was tested, and the Potency was inconclusive: 1.58 µM [inhibitor, single point]. For `CC(C)(C)c1ccc(O)c(N=Cc2cc3c(cc2[N+](=O)[O-])OCO3)c1`, the Potency was inconclusive: 10 µM [inhibitor, single point]. For `Cc1ccc(NC(=O)c2ccncc2)cc1S(=O)(=O)N(C)C`, the Potency was inconclusive: 14.1 µM [activator, partial curve, poor fit]. `COC(=O)[C@@]1(Cc2ccc(F)cc2)[C@H]2c3cc(C(=O)N(C)C)n(Cc4ccc(OC(F)(F)F)cc4)c3C[C@H]2CN1C(=O)c1ccccc1` was tested, and the Potency was inconclusive: 20 µM [activator, single point] and inconclusive: 12.6 µM [activator, single point]. For `COc1ccc2c(c1)OC(O)(C(F)(F)C(F)F)CC2=O` (stereo unspecified), the Potency was active: 12.6 µM. `Cc1ccc(-n2c(-c3ccc(Br)cc3)c[n+]3c2CCc2ccc4cccnc4c2-3)cc1` was tested, and the Potency was active: 7.08 µM. In the case of `C(=N\Nc1nc(Nc2ccccc2)nc(N2CCCCC2)n1)/c1ccco1`, the Potency is reported as active: 2.24 µM. In the case of `Cc1cc(NCCCn2ccnc2)n2ncc(-c3ccccc3)c2n1`, the Potency is reported as active: 4.47 µM. In the case of `CCOC(=O)c1oc2ccccc2c1NC(=O)c1ccccc1OC`, the “activity change, negative = inhibition” value is reported as inactive: 27.2%. For `CCOCCCNC(=O)c1cc(=O)n(Cc2cccc(C)c2)c2ccccc12`, the “activity change, negative = inhibition” value was inactive: 15.3%. For `Cc1ccc(C(=O)N/N=C/c2nc3ccccc3n2C)cc1`, the Potency was active: 11.2 µM. In the case of `CN(c1ccccc1)c1nc(N)c([N+](=O)[O-])c(N2CCCC2)n1`, the Potency is reported as inconclusive: 14.1 µM [activator, partial curve, poor fit]. In the case of `COCCCNC(=S)NC1CC2CCCC(C1)N2Cc1cccs1` (stereo unspecified), the Potency is reported as active: 10 µM. In the case of `Cc1cnc(CNc2nc(-c3ccc(N(C)C)cc3)nc3ccccc23)cn1`, the Potency is reported as inconclusive: 20 µM [inhibitor, single point]. In the case of `COc1ccc(C(=O)NN2C(=O)C3C4C=CC(O4)C3C2=O)cc1` (stereo unspecified), the Potency is reported as inconclusive: 35.5 µM [inhibitor, single point]. In the case of `CCOC(=O)c1ccc(N=Cc2nc3ccccc3n2C)cc1`, the Potency is reported as inconclusive: 12.6 µM [inhibitor, single point]. With `CCN1CCN(Cc2ccc(NC(=O)c3ccc(C)c(/C=C/c4cnc(Nc5cc(N6CCNCC6)nc(C)n5)cn4)c3)cc2C(F)(F)F)CC1` the Potency was inconclusive: 35.5 µM [inhibitor, single point]. `CCc1ccc(CNC(=O)C2CCCN(c3nnc(C)c4c(C)n(-c5ccccc5)nc34)C2)cc1` (stereo unspecified) was tested, and the Potency was inconclusive: 11.2 µM [inhibitor, partial curve]. In the case of `CCOc1ccccc1NC(=O)CN1C(=O)COc2ccccc21`, the “activity change, negative = inhibition” value is reported as inactive: 14%. In the case of `Cc1cc(NC(=O)CSc2nnc(-c3ccccc3)o2)no1`, the Potency is reported as inconclusive: 14.1 µM [inhibitor, partial curve]. In the case of `COc1ccc(/C=C2\SC(=S)N(CCC(=O)NCCc3ccc(O)cc3)C2=O)cc1`, the “activity change, negative = inhibition” value is reported as inactive: 10.2%. For `CCOC(=O)Cc1csc(NC(=O)CSc2nnnn2-c2ccc(C)cc2C)n1`, the Potency was inconclusive: 3.55 µM [activator, single point]. `c1ccc(CC2CCN(c3ncnc4sccc34)CC2)cc1` was tested, and the Potency was active: 10 µM. With `Cc1ccc(NC(=O)NCc2cccnc2)cc1` the Potency was inconclusive: 11.2 µM [activator, partial curve]. For `O=C(COC(=O)/C=C/c1cn(-c2ccccc2)nc1-c1ccc2c(c1)OCCO2)NC1CCS(=O)(=O)C1` (stereo unspecified), the Potency was inconclusive: 14.1 µM [activator, single point]. For `CCCC(=O)Nc1ccccc1NC(=O)c1ccc(OCC)cc1`, the “activity change, negative = inhibition” value was inactive: 14.6%. With `O=C(N/N=C/c1cn[nH]c1-c1ccc(Cl)cc1)c1ccc([N+](=O)[O-])cc1` the Potency was active: 10 µM. In the case of `S=C(NCC1CCCO1)c1ccc(Br)cc1` (stereo unspecified), the Potency is reported as inconclusive: 10 µM [activator, partial curve]. With `CN(CC(=O)Nc1ccc(Cl)cc1)S(=O)(=O)c1cccc2cccnc12` the “activity change, negative = inhibition” value was inactive: -15.8%. `COc1ccccc1NC(=S)N1CCCCCC1` was tested, and the Potency was inconclusive: 35.5 µM [inhibitor, single point]. For `O=C1c2c(O)ccc([N+](=O)[O-])c2C(=O)c2c([N+](=O)[O-])ccc(O)c21`, the Potency was active: 6.31 µM. With `Cc1ccc(C(=O)CSc2nc(C(C)C)nc3ccccc23)cc1` the Potency was inconclusive: 10 µM [inhibitor, partial curve]. For `COc1cc(NC(=O)c2ccc3c(c2)OCCO3)ccc1NC(=O)c1ccccc1Cl`, the “activity change, negative = inhibition” value was inactive: -10.4%. `COc1cc2c(cc1OC)CN(c1ccc(C(N)=O)cc1[N+](=O)[O-])CC2` was tested, and the “activity change, negative = inhibition” value was inactive: 2.33%. `Cc1ccc(C(CC(=O)N2CCCC2)c2ccccc2)c(O)c1` (stereo unspecified) was tested, and the “activity change, negative = inhibition” value was inactive: -2.64%. `Cc1ccc(CNC(=O)Nc2ccccc2)cc1` was tested, and the “activity change, negative = inhibition” value was inactive: -21%. `Cn1c(SCC(=O)N2CCCC2)nc2ccccc2c1=O` was tested, and the “activity change, negative = inhibition” value was inactive: -0.501%. In the case of `COc1cccc(CN(C)Cc2cc(=O)oc3c(C)c(C)ccc23)c1`, the “activity change, negative = inhibition” value is reported as inactive: 41.2%. With `Cc1c(N2C(=O)/C(=C\c3cccc4ccccc34)SC2=S)c(=O)n(-c2ccccc2)n1C` the Potency was inconclusive: 35.5 µM [activator, single point]. With `Cc1csc(C(C)NC(=O)c2ccc(OC3CCN(CCc4ccccc4)CC3)cc2)n1` (stereo unspecified) the “activity change, negative = inhibition” value was inactive: -14.9%. `COc1ccc(/C=N/NC(=O)c2cccnc2)cc1Cn1nc([N+](=O)[O-])c(Br)c1C` was tested, and the “activity change, negative = inhibition” value was inactive: -3.73%. In the case of `Cc1cccc(CCNC(=O)c2cc(S(=O)(=O)N3CCCCC3)c[nH]2)c1`, the Potency is reported as inconclusive: 12.6 µM [activator, partial curve]. `COCC(=O)Nc1nnc(-c2cccs2)s1` was tested, and the Potency was inconclusive: 4.47 µM [activator, partial curve]. In the case of `COc1ccc(/C=N/NC(=S)Nc2cccc(C(=O)O)c2)cc1OC`, the Potency is reported as inconclusive: 11.2 µM [inhibitor, partial curve, poor fit]. In the case of `CCOC(=O)CC(NC(=O)Cn1nnc(-c2ccccc2Cl)n1)c1ccc(OC)cc1` (stereo unspecified), the Potency is reported as inconclusive: 11.2 µM [activator, single point]. `CCOC(=O)c1[nH]c(=O)[nH]c1CSc1nc(C)cc(C)n1` was tested, and the Potency was inconclusive: 35.5 µM [inhibitor, single point]. With `COc1ccc2c(c1)C(=O)[C@@H](OC(=O)N[C@H]1CCCc3ccccc31)[C@H](c1ccc(OC)c(Br)c1)O2` the “activity change, negative = inhibition” value was inactive: 11.7%. `CCCOc1ccc(C(=O)CCNc2cccc(Cl)c2)cc1` was tested, and the “activity change, negative = inhibition” value was inactive: 37.2%. `CCCCOCCCNC(=O)N[C@H](C(=O)OC)C(C)CC` (stereo partly specified) was tested, and the “activity change, negative = inhibition” value was inactive: -1.04%. For `CCCCCCCCn1ccc(=N)cc1`, the Potency was inconclusive: 0.447 µM [activator, full curve, poor fit]. `CC(C)(C)n1ncc2c(=O)n(CC(=O)NCc3ccccc3Cl)cnc21` was tested, and the Potency was inconclusive: 35.5 µM [inhibitor, single point]. With `Clc1ccc(Cn2cc(/C=N/n3cnnc3)c3ccccc32)c(Cl)c1` the Potency was inconclusive: 22.4 µM [inhibitor, single point]. `COCCNC(=O)C(=O)N/N=C/c1ccccc1C(F)(F)F` was tested, and the Potency was inconclusive: 35.5 µM [activator, single point]. For `Cc1cccc(-c2ncc(CN3CCCC(CO)(Cc4ccccc4C)C3)cn2)c1` (stereo unspecified), the Potency was inconclusive: 31.6 µM [activator, single point]. With `CCOc1cccc2sc(N(CCCN(C)C)C(=O)c3ccc(S(=O)(=O)N(CC)Cc4ccccc4)cc3)nc12` the Potency was inconclusive: 25.1 µM [inhibitor, single point]. For `Cc1ccc(CNC(=O)c2sc3ccc(S(=O)(=O)N4CCCCC4)cc3c2N)cc1`, the Potency was inconclusive: 22.4 µM [activator, single point]. For `CN(C)c1ccc(-n2cccc2/C=N/n2cnnc2)cc1`, the Potency was inconclusive: 14.1 µM [inhibitor, partial curve]. With `COc1ccc(-c2csc(N3CCC(c4ccccc4)C3)n2)cc1` (stereo unspecified) the Potency was active: 11.2 µM. In the case of `COc1ccc(/C=N/NC(=O)c2ccco2)cc1COc1ccc(F)cc1`, the Potency is reported as inconclusive: 35.5 µM [inhibitor, single point]. `Cc1ccc(N2CCN(S(=O)(=O)N3CCOCC3)CC2)cc1C` was tested, and the Potency was inconclusive: 3.16 µM [activator, full curve, poor fit]. With `COc1ccc(NS(=O)(=O)c2ccc(N3CCCC3)c(NC(=S)Nc3cccc(S(=O)(=O)N(C)C)c3)c2)cc1` the Potency was inconclusive: 8.91 µM [activator, partial curve].
Further: nearly all actives have a fitted effect of over 60% in size.
On the % scale 0 is the no-effect control and ±100 the full control effect; potency means the concentration at half of the fitted maximal effect.
